Test results as given in PubChem BioAssay AID587 (National Center for Advancing Translational Sciences (NCATS), 2007).
Where “and” joins values, the source holds several entries; their conditions need not be identical. Identical values can stand only once. Screen size: about 59,000 compounds; about 35 (0.06%) were called active. Inconclusive results, whose numbers are uncertain, are shown with a selection of clear calls. No stated cut-off is given here; in the data, active means max dye-equivalent concentration above about 10 nM; inconclusive means between about 1.1 nM and that limit; inactive means weaker than that.

Test: qHTS Assay for Spectroscopic Profiling in Texas Red Spectral Region
Conditions: Compound fluorescence, Texas Red channel, 547/618 nm; hits give high values
Summary of the method: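 qHTS profiling of intrinsic compound fluorescence; 100 mM Tris pH 8.0; 15 min RT; ex 547 / em 618 nm; response expressed as Texas Red dye-equivalent concentration from six-point plate standard.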
For O=C(O)CC[P+](c1ccccc1)(c1ccccc1)c1ccccc1, the max dye-equivalent concentration was “inactive”.
In the case of Cc1cc(NC(=O)CSc2ccc3nnc(-c4ccccc4)n3n2)no1, the max dye-equivalent concentration is reported as inconclusive: 1.8e-09 M.
With CCOc1ccc(-c2nnn(CC(=O)Nc3cc(OC)ccc3OC)n2)cc1OCC the max dye-equivalent concentration was inconclusive: 2.6e-09 M.
In the case of CCOc1ccc(CCNC(=O)CN(C)S(=O)(=O)c2cccc3nsnc23)cc1OCC, the max dye-equivalent concentration is reported as inconclusive: 1.3e-09 M.
In the case of CCOC(=O)c1[nH]c(C)c(/C(O)=C2\C(=O)C(=O)N(CCCN(C)C)C2c2cccnc2)c1C (stereo unspecified), the max dye-equivalent concentration is reported as inconclusive: 2.2e-09 M.
For CCCCNC(=O)c1ccc(CS(=O)(=O)c2cccc(C(F)(F)F)c2)o1, the max dye-equivalent concentration was inconclusive: 1.4e-09 M.
With CCOC(=O)c1ccc(N2C(=O)CC(C(=O)OC)=C2C)cc1 the max dye-equivalent concentration was inconclusive: 2.1e-09 M.
For COc1ccc2nc(N3CCC(O)CC3)c(C#N)cc2c1, the max dye-equivalent concentration was “inactive”.
In the case of CCCn1c(=C(C#N)C#N)s/c(=C2\C=Cc3ccccc3N2CC)c1=O, the max dye-equivalent concentration is reported as inconclusive: 9.4e-09 M.
For COC(=O)CSc1nnc(-c2sc3cc(OC)ccc3c2Cl)n1C, the max dye-equivalent concentration was inconclusive: 1.2e-09 M.
For Cc1c(-c2ccccc2)oc2c(C(=O)OCCN3CCCCC3)cccc2c1=O, the max dye-equivalent concentration was inconclusive: 1.9e-09 M.
With CCCn1cnc2c(cnn2-c2ccc(F)cc2)c1=O the max dye-equivalent concentration was inconclusive: 1.2e-09 M.
In the case of Cc1cccn2c(=O)c3cc(C(=O)NCc4ccco4)c(=N)n(C(C)C)c3nc12, the max dye-equivalent concentration is reported as inconclusive: 1.3e-09 M.
For CCCC(=O)Nc1ccc2oc(-c3cccnc3)nc2c1, the max dye-equivalent concentration was inconclusive: 1.2e-09 M.
With COc1cccc(-c2cncnc2N(C)Cc2ccco2)c1 the max dye-equivalent concentration was inconclusive: 1.1e-09 M.
For O=C(Nc1ccc2oc(=O)ccc2c1)c1ccco1, the max dye-equivalent concentration was inconclusive: 1.2e-09 M.
In the case of O=C(O)C(Oc1ccc2c3c(c(=O)oc2c1)CCC3)c1ccccc1 (stereo unspecified), the max dye-equivalent concentration is reported as inconclusive: 1.5e-09 M.
For CCOC(=O)CC1Sc2ccccc2NC1=O (stereo unspecified), the max dye-equivalent concentration was inconclusive: 1.8e-09 M.
For CCCOC(=O)C1[C@H]2C(=O)N(CC3CCCO3)C[C@]23C=C[C@H]1O3 (stereo partly specified), the max dye-equivalent concentration was inconclusive: 1.5e-09 M.
With O=C(Nc1ccccc1N1CCCC1)c1ccc(Br)o1 the max dye-equivalent concentration was inconclusive: 1.2e-09 M.
In the case of Cc1ccc2cc(C#N)c(N3CCCN(C(=O)C4CCCO4)CC3)nc2c1 (stereo unspecified), the max dye-equivalent concentration is reported as inconclusive: 1.8e-09 M.
For Cn1c2ccccc2c2c(C(=O)N3CCN(c4ccccc4)CC3)cn(C3CCCC3)c(=O)c21, the max dye-equivalent concentration was inconclusive: 1.1e-09 M.
For COc1ccccc1C(=O)Nc1ccc(S(=O)(=O)N2CCCC2)cc1, the max dye-equivalent concentration was inconclusive: 1.1e-09 M.
With Cc1ccc2[nH]c(=O)c(CN(C)C(=O)c3ccccn3)cc2c1 the max dye-equivalent concentration was inconclusive: 1.3e-09 M.
For Cn1cc(-c2nc3cnc(N4CCNCC4)nc3n(CCc3ccccc3)c2=O)c2ccccc21, the max dye-equivalent concentration was “inactive”.
For CCCCCOc1ccc(N2C(=O)CC(N(O)c3ccccc3)C2=O)cc1 (stereo unspecified), the max dye-equivalent concentration was inconclusive: 1.5e-09 M.
For CCOc1cc(C(=O)Nc2cc(C)on2)cc(OCC)c1OCC, the max dye-equivalent concentration was inconclusive: 1.5e-09 M.
With CCOC(=O)N1CCN(C(=O)C2CCC(CNS(=O)(=O)c3ccccc3)CC2)CC1 (stereo unspecified) the max dye-equivalent concentration was inconclusive: 1.3e-09 M.
In the case of Cc1c(C(=O)O)c2cc(O)ccc2n1-c1ccccc1, the max dye-equivalent concentration is reported as inconclusive: 1.1e-09 M.
For COc1ccccc1CNc1ncnc2ccc(-c3ccoc3)cc12, the max dye-equivalent concentration was “inactive”.
With CCCCCCC/C=C\CCCCCCCCC(=O)O the max dye-equivalent concentration was inconclusive: 1.4e-09 M.
With COc1ccc(-n2c(SCC(=O)OC(C)C)nnc2-c2ccccn2)cc1 the max dye-equivalent concentration was inconclusive: 1.3e-09 M.
In the case of CC(=O)NC12CC3CC(C1)CC(C(=O)Nc1nccs1)(C3)C2, the max dye-equivalent concentration is reported as inconclusive: 1.8e-09 M.
For O=C(CN1C(=O)NC2(CCCc3ccccc32)C1=O)N1CCc2ccccc2C1 (stereo unspecified), the max dye-equivalent concentration was inconclusive: 1.3e-09 M.
In the case of CCN1CCN(Cc2nc3c(c(=O)n(C)c(=O)n3C)n2Cc2cccc3ccccc23)CC1, the max dye-equivalent concentration is reported as inconclusive: 1.1e-09 M.
In the case of CC1(c2ccc(Cl)cc2Cl)OCC(Cn2ccnc2)O1 (stereo unspecified), the max dye-equivalent concentration is reported as inconclusive: 2e-09 M.
In the case of COc1cccc(N2CC(O)=C(c3nc4ccccc4c(=O)[nH]3)C2=N)c1, the max dye-equivalent concentration is reported as inconclusive: 1.1e-09 M.
With COc1ccccc1-c1nnc(NC(=O)OCC(C)C)s1 the max dye-equivalent concentration was inconclusive: 1.4e-09 M.
In the case of O=C(O)CNS(=O)(=O)c1ccc(Br)s1, the max dye-equivalent concentration is reported as inconclusive: 1.4e-09 M.
For CCCC(c1nnnn1C(C)(C)CC)N(CCCO)Cc1cc2cc(C)cc(C)c2[nH]c1=O (stereo unspecified), the max dye-equivalent concentration was inconclusive: 1.7e-09 M.
With COCCn1c(=O)c(C)nc2cnc(Nc3ccccc3)nc21 the max dye-equivalent concentration was “inactive”.
In the case of Cn1c(=O)c2c(nc(C(=N)SCC(=O)O)n2C)n(C)c1=O, the max dye-equivalent concentration is reported as “inactive”.
For C=C(C)[C@H]1CC[C@]2(CO)CC[C@]3(C)[C@@H](CC[C@H]4[C@@]5(C)CC[C@@H](O)C(C)(C)[C@@H]5CC[C@@]43C)[C@H]12, the max dye-equivalent concentration was inconclusive: 1.1e-09 M.
For O=C(CSc1ncccc1-c1nc2ccccc2[nH]1)NC1CC1, the max dye-equivalent concentration was inconclusive: 1.1e-09 M.
In the case of O=C1[C@@H]2C=CC=CC2=NC(=S)N1CCN1CCC(=C(c2ccc(F)cc2)c2ccc(F)cc2)CC1, the max dye-equivalent concentration is reported as “inactive”.
For CCN(CC)S(=O)(=O)c1ccc2c(c1)nc(SCc1nc3ccsc3c(=O)[nH]1)n2CC, the max dye-equivalent concentration was inconclusive: 1.4e-09 M.
With CN(c1ccc(C(=O)NCCC2=CCCCC2)cc1)S(C)(=O)=O the max dye-equivalent concentration was “inactive”.
With O=C(NCCCNC(=O)C(F)(F)C(F)F)C(F)(F)C(F)F the max dye-equivalent concentration was inconclusive: 1.7e-09 M.
In the case of CC(=O)NCC(=O)OC(C)C(=O)Nc1ccc(C(C)=O)cc1 (stereo unspecified), the max dye-equivalent concentration is reported as inconclusive: 2e-09 M.
With O=c1c2[nH]c3ccccc3c2ncn1CCN1CCCCC1 the max dye-equivalent concentration was inconclusive: 1.5e-09 M.
With Cc1occc1C(=O)N1CCN(c2ccc(Cl)c(Cl)c2)CC1 the max dye-equivalent concentration was inconclusive: 1.1e-09 M.
In the case of Cn1c(CNc2nc(-c3ccccc3)cs2)nnc1SCC(=O)c1ccccc1, the max dye-equivalent concentration is reported as inconclusive: 2.3e-09 M.
For Cn1nc(C(=O)NCC2CCCO2)c2ccccc2c1=O (stereo unspecified), the max dye-equivalent concentration was inconclusive: 1.2e-09 M.
In the case of Cc1cc2n(n1)C(c1ccc(N(C)C)cc1)Nc1ccccc1-2 (stereo unspecified), the max dye-equivalent concentration is reported as inconclusive: 2e-09 M.
In the case of NS(=O)(=O)c1cc2c(cc1Cl)NC=NS2(=O)=O, the max dye-equivalent concentration is reported as inconclusive: 1.2e-09 M and inconclusive: 1.1e-09 M.
In the case of COc1ccc(NC(C)=O)cc1NC(=O)CSc1nnc(-c2cccnc2)n1C, the max dye-equivalent concentration is reported as inconclusive: 1.6e-09 M.
In the case of COc1ccc(C(=O)N2CCC3(CCCN(c4ccncc4)C3)CC2)cc1, the max dye-equivalent concentration is reported as “inactive”.
In the case of Cc1csc(NC(=O)CSc2nncn2C)n1, the max dye-equivalent concentration is reported as inconclusive: 1.3e-09 M.
For CC(C)Sc1nc2c(c(=O)[nH]c(=O)n2C)n1C, the max dye-equivalent concentration was inconclusive: 2.1e-09 M.
For COc1cc2nc(N3CCNCC3)nc(N)c2cc1OC, the max dye-equivalent concentration was inconclusive: 1.7e-09 M.
For O=C(O)/C=C\[C@H](O)c1ccc(Cl)cc1, the max dye-equivalent concentration was inconclusive: 1.4e-09 M.
In the case of COc1ccccc1CNc1nc(-c2ccoc2)nc2ccccc12, the max dye-equivalent concentration is reported as “inactive”.
For CSc1n[nH]c(NCc2ccccc2)n1, the max dye-equivalent concentration was inconclusive: 1.2e-09 M.
In the case of C=CCn1c(SCC(=O)N2CC(=O)Nc3ccccc32)nc2scc(-c3cccs3)c2c1=O, the max dye-equivalent concentration is reported as inconclusive: 1.8e-09 M.
With CCN(CC)CC(=O)Nc1c(C)cc(C(C)(C)C)cc1C the max dye-equivalent concentration was inconclusive: 1.1e-09 M.
For CC(=O)c1cccc(NC(=O)c2ccc(NS(C)(=O)=O)cc2)c1, the max dye-equivalent concentration was inconclusive: 1.1e-09 M.
In the case of COc1ccc(OC)c(N/C=C2/CCCCC2=O)c1, the max dye-equivalent concentration is reported as inconclusive: 1.2e-09 M.
With Cc1cc(C)c2c(n1)nn1c(NCCCn3ccnc3)cc(C)nc21 the max dye-equivalent concentration was inconclusive: 1.6e-09 M.
In the case of Cc1nn(-c2ccccc2)c2sc(C(=O)O)cc12, the max dye-equivalent concentration is reported as inconclusive: 1.2e-09 M.
In the case of O[C@@H](c1cc(-c2ccccc2)nc2c1ccc1ccccc12)[C@@H]1CCCCN1, the max dye-equivalent concentration is reported as “inactive”.
With CC1(C)Oc2ccc(C(=O)N3CCCC3)cc2N(CC(=O)NCc2ccccc2)C1=O the max dye-equivalent concentration was inconclusive: 1.6e-09 M.
With COc1ccc2ccc(Oc3ncccn3)cc2c1 the max dye-equivalent concentration was inconclusive: 1.7e-09 M.
In the case of COc1ccc(-n2c(C)cc(C(=O)Cn3nnc4ccccc4c3=O)c2C)cc1, the max dye-equivalent concentration is reported as inconclusive: 1.1e-09 M.
In the case of CCOC(=O)N1CCN(C(=O)C2CCN(S(=O)(=O)N(CC)CC)CC2)CC1, the max dye-equivalent concentration is reported as inconclusive: 1.2e-09 M.
For COC(=O)c1nnn(-c2nonc2N)c1CSc1ccc(Cl)cc1, the max dye-equivalent concentration was inconclusive: 1.1e-09 M.
For COc1ccc(N2CCN(c3nc4c(c(=O)[nH]c(=O)n4C)n3Cc3cccc(C)c3)CC2)cc1, the max dye-equivalent concentration was inconclusive: 1.5e-09 M.
For COc1ccc(S(=O)(=O)n2ccnc2)c2cccnc12, the max dye-equivalent concentration was inconclusive: 1.1e-09 M.
For CCOc1ccc(C(C)=O)cc1Cn1nc(C(=O)O)c2ccccc2c1=O, the max dye-equivalent concentration was inconclusive: 1.2e-09 M.
For CCC(C(=O)O)n1nnc(-c2ccc(-c3ccc(OC)cc3)cc2)n1 (stereo unspecified), the max dye-equivalent concentration was inconclusive: 1.1e-09 M.
With CCOc1ccc2nc(C(C)O)[nH]c2c1 (stereo unspecified) the max dye-equivalent concentration was inconclusive: 1.1e-09 M.
In the case of Cc1cc(C)nc(SCc2nnc(SCC(=O)Nc3cc(C(F)(F)F)ccc3Cl)o2)n1, the max dye-equivalent concentration is reported as inconclusive: 1.1e-09 M.
In the case of COc1ccc(-c2nnn(CC(=O)N(CCO)C(C(=O)NC3CCCC3)c3ccc(F)cc3)n2)cc1 (stereo unspecified), the max dye-equivalent concentration is reported as inconclusive: 1.1e-09 M.
For COc1cc(-c2noc(-c3cccs3)n2)cc(OC)c1OC, the max dye-equivalent concentration was inconclusive: 2.3e-09 M.
In the case of CCOc1ccccc1N(CC(=O)OC)S(C)(=O)=O, the max dye-equivalent concentration is reported as inconclusive: 1.9e-09 M.
With CCC(C)c1ccc(NC(=O)CC(C)=O)cc1 (stereo unspecified) the max dye-equivalent concentration was inconclusive: 3.2e-09 M.
For CC1(C)CC(N2CCN(c3ccccc3)CC2)=CC(=[N+]2CCCC2)C1, the max dye-equivalent concentration was inconclusive: 1.5e-09 M.
